{"sequences": {"note": "Protein sequences, listed by entry. Tags and fused reporters are not part of them. Lines headed by an entry give the natural chain unless they say otherwise; changes in a name come on top.", "UniProt P07288": "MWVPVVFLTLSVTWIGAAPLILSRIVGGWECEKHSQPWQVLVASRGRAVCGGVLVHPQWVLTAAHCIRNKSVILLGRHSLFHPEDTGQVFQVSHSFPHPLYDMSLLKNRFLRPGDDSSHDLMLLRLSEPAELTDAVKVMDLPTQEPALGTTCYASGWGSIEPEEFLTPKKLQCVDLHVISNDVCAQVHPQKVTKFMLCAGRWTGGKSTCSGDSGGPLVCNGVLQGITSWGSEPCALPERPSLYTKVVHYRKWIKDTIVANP"}, "source": "patent US20160025732A1", "target": "Intact PSA (iPSA) Antigen (human) (UniProt P07288)", "test": "affinity chromatography, antibody on a streptavidin cartridge, antigen from insect cell lysate", "note": "No constants are given. Whether binding was seen depends on the method and setting. Some binding calls cover weakened binding; strength is not graded here.", "data": [{"binder": "biotinylated monoclonal antibody 5A10 (antibody, V domains shown, biotinylated (site not stated)) VH: EVQLVESGPGILQPSQTLSLTCSFSGFSLSTTGMGVSWIRQPSGKGLEWLAHLYWDEDKRYNPSLKSRLTISEDSSRNQVFLKITSVGPADSATYYCARKGYYGYFDYWGQGTALTVSS VL: DIVMTQSQKFMSTSVGDRVSVTCKASQNVNTDVAWYQQKPGQSPKALIFSTSYRSSGVPDRFTGSGSGTDFTLTITNVQSEDLAEYFCQQYSNYPLTFGAGTKVDLN", "values": [{"measurement": "binding", "result": "binds"}]}]}
